Test results as given in PubChem BioAssay AID1347426 (Functional Genomics Laboratory (NCATS/FGL), 2020).
Hit rate of the full screen: of about 31,000 sequences, about 1,400 (4.5%) were called active.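 How the source made its calls: active means median seed-adjusted z-score above 1 or below -1; inactive means the rest.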 This is one part of the list.

Assay: Novel Modifiers of Survival Motor Neuron (SMN) Protein: Gene Identification via Genome-wide siRNA Screen;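 further: luminescence tracks full-length SMN protein made from the SMN2 reporter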
Details: HEK293T SMN2-luciferase reporter, siRNA knockdown, 72 h; actives lie on both sides
Outline: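 Luciferase signal, proportional to full-length SMN made from an SMN2 cDNA reporter in stable HEK293T cells, was read 72 h after siRNA reverse transfection. Values were expressed as MAD scores after non-targeting-control normalization and log10 conversion; seed analysis flagged off-targets.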

**Q.** With GAGAAAAAGCGGAUCAAGATT against GRK6 as the sequence, how does the median seed-adjusted z-score read?
**A.** inactive: -0.862

**Q.** With GGCUAAUACUGAGCUAGAATT against KRT12 as the sequence, how does the median seed-adjusted z-score read?
**A.** inactive: -0.0457

**Q.** Which median seed-adjusted z-score does the source give for GAAUAGAAGUCUUAUUGAATT against ZKSCAN4 here?
**A.** inactive: 0.0558

**Q.** For GACCACCACUUAUAGGGUATT against FUT3, which median seed-adjusted z-score is on record?
**A.** inactive: 0.11

**Q.** Which median seed-adjusted z-score does the source give for GCCUGUUUCAAGACACUGATT against CRNN here?
**A.** inactive: -0.0758

**Q.** Which median seed-adjusted z-score does the source give for GGAGAAAGGUGGUCACAGUTT against DBH here?
**A.** inactive: 0.337

**Q.** Which median seed-adjusted z-score does the source give for UCGUCUUUCUAGCUACAGATT against SIAH2 here?
**A.** inactive: 0.156

**Q.** For CGUCAAAUUUUUGCACAAATT against GPR176, which median seed-adjusted z-score is on record?
**A.** inactive: 0.0782

**Q.** For AGGUCUCCCUAUACCGAGATT against SOD3, which median seed-adjusted z-score is on record?
**A.** inactive: -0.0691

**Q.** With GCGCAGUAUGGGUUGGAAATT against ZMYND11 as the sequence, how does the median seed-adjusted z-score read?
**A.** inactive: -0.032

**Q.** Which median seed-adjusted z-score does the source give for GAACUUCUGGACAAGAAAATT against CTSB here?
**A.** inactive: -0.31

**Q.** With CAAUGAUUGGGCUCUAUGATT against EMID1 as the sequence, how does the median seed-adjusted z-score read?
**A.** inactive: 0.979

**Q.** For CGGACAAGCUGAACGAACATT against TTC15, which median seed-adjusted z-score is on record?
**A.** inactive: -0.235

**Q.** With CUCUUCUCCGGUUACAACATT against CHRNA4 as the sequence, how does the median seed-adjusted z-score read?
**A.** inactive: 0.174

**Q.** For GGCAAUCAGUGUAGUGUAATT against TBC1D8B, which median seed-adjusted z-score is on record?
**A.** inactive: -0.985

**Q.** With GCUUAUGAUGUCUACAAUATT against BBS2 as the sequence, how does the median seed-adjusted z-score read?
**A.** inactive: 0

**Q.** With GGAGCGCAAGAUCACCUUATT against SSTR1 as the sequence, how does the median seed-adjusted z-score read?
**A.** inactive: 0.285

**Q.** With GAACAAUCCGAUUCACGUATT against AKT1 as the sequence, how does the median seed-adjusted z-score read?
**A.** inactive: -0.288

**Q.** For GGAUAGUUACUGACCGGGATT against NCL, which median seed-adjusted z-score is on record?
**A.** active: 1.33

**Q.** With GCACCACCGCUUCUAUGCATT against GPR27 as the sequence, how does the median seed-adjusted z-score read?
**A.** inactive: -0.678

**Q.** Which median seed-adjusted z-score does the source give for AGCUUUCUUGAGCACCUGATT against LRRC32 here?
**A.** inactive: 0.0464

**Q.** For GUUCAUCCCUUAUUCGACATT against ZNF215, which median seed-adjusted z-score is on record?
**A.** inactive: 0.485

**Q.** For CUGAAUCCCUCUAUAGUGATT against NR1D1, which median seed-adjusted z-score is on record?
**A.** inactive: -0.301

**Q.** With GGAUGGAACCGAUCACGAATT against PHF16 as the sequence, how does the median seed-adjusted z-score read?
**A.** inactive: 0

**Q.** With GAGACUUACUCUUCGAAGATT against DOCK8 as the sequence, how does the median seed-adjusted z-score read?
**A.** inactive: 0.243

**Q.** Which median seed-adjusted z-score does the source give for GUACUGGUAUAACUAUGAATT against SLC25A40 here?
**A.** inactive: 0.414

**Q.** For CAAGAUAUAUAUACGCCUATT against NPY1R, which median seed-adjusted z-score is on record?
**A.** inactive: 0.76

**Q.** Which median seed-adjusted z-score does the source give for GCAAACUCCUCAAUAUGAUTT against XCR1 here?
**A.** inactive: -0.292

**Q.** For GGAUCCUAAUGACAAAGUUTT against CRHR2, which median seed-adjusted z-score is on record?
**A.** inactive: -0.211

**Q.** For CAAUAAGACUGAGUUAUUATT against ETNK1, which median seed-adjusted z-score is on record?
**A.** inactive: 0.299

**Q.** With GAAAUACCCUCAUGUCCAATT against CYP2S1 as the sequence, how does the median seed-adjusted z-score read?
**A.** inactive: -0.196

**Q.** For GCCUUAAGAUCUCGGCGUATT against PTPRK, which median seed-adjusted z-score is on record?
**A.** inactive: 0

**Q.** For CCAUCAUACAGUCUCCUUATT against SNTB1, which median seed-adjusted z-score is on record?
**A.** inactive: 0.488

**Q.** With GCUCUGCAAGGAUCGAUUUTT against AMFR as the sequence, how does the median seed-adjusted z-score read?
**A.** inactive: -0.15

**Q.** With CAUGGUACCUGGAUUCAGATT against MAP3K11 as the sequence, how does the median seed-adjusted z-score read?
**A.** inactive: 0.773

**Q.** For CGUGGAAUACUAGAGCAAATT against ACTL6A, which median seed-adjusted z-score is on record?
**A.** active: 1.11

**Q.** For GAAGAGAUAGAGAUAGUAATT against CARD17, which median seed-adjusted z-score is on record?
**A.** inactive: 0.301

**Q.** With GAAGAUUCGAAAUAAAAGATT against CREB3 as the sequence, how does the median seed-adjusted z-score read?
**A.** inactive: 0.0509

**Q.** With GGAGACCUGCGAUUACUUUTT against BARX2 as the sequence, how does the median seed-adjusted z-score read?
**A.** inactive: -0.206

**Q.** With GGAGAAAUCCAUCAACAAATT against PHYHD1 as the sequence, how does the median seed-adjusted z-score read?
**A.** inactive: -0.37

**Q.** Which median seed-adjusted z-score does the source give for CCCUCGCUUCAGUACCUUATT against GCLC here?
**A.** inactive: -0.21

**Q.** With AAACUCACCUUAAUAAAGATT against UBL5 as the sequence, how does the median seed-adjusted z-score read?
**A.** inactive: -0.706

**Q.** Which median seed-adjusted z-score does the source give for GGUGGAUGGUAAAAACGAATT against ADAM17 here?
**A.** inactive: 0

**Q.** Which median seed-adjusted z-score does the source give for GGUGAUUUAUCUCAUGAGATT against SULT2A1 here?
**A.** inactive: -0.123

**Q.** Which median seed-adjusted z-score does the source give for AGUUCAAGCGGAUCCUGAATT against PDE4C here?
**A.** inactive: 0.565

**Q.** For AGGAUACAAUGAUUGGUGATT against BPIL3, which median seed-adjusted z-score is on record?
**A.** inactive: -0.0506

**Q.** With AGAGCACCAGAAGACACAATT against GJC3 as the sequence, how does the median seed-adjusted z-score read?
**A.** inactive: -0.137

**Q.** For GAGCUUUACUGAUUGACGATT against PUM2, which median seed-adjusted z-score is on record?
**A.** inactive: -0.129

**Q.** For CGAUGAAGUUGACAGGCGATT against GIT2, which median seed-adjusted z-score is on record?
**A.** inactive: 0.338

**Q.** For CCAACAAGGAUGAUAUGAATT against MTCH1, which median seed-adjusted z-score is on record?
**A.** inactive: 0

**Q.** With CCAUAUCAAGUGUGACAAATT against ZNF577 as the sequence, how does the median seed-adjusted z-score read?
**A.** inactive: -0.756

**Q.** Which median seed-adjusted z-score does the source give for CAUCAAGCCUCAUCUAAUATT against CHD1 here?
**A.** active: -1.03

**Q.** With CUGUCAGGCUAAAUCCAGATT against IFIT1L as the sequence, how does the median seed-adjusted z-score read?
**A.** inactive: 0.166

**Q.** For CUGCUGUUGUUACUACCCATT against USF1, which median seed-adjusted z-score is on record?
**A.** inactive: 0.16

**Q.** With AGAAAUGAUGGAUAUUUGATT against GSTA1 as the sequence, how does the median seed-adjusted z-score read?
**A.** inactive: 0.27

**Q.** With GGAGGUCAGGUAUAUGGAATT against PSMB9 as the sequence, how does the median seed-adjusted z-score read?
**A.** inactive: -0.788

**Q.** For CAGUGAUGGUUAAGAACGATT against A2M, which median seed-adjusted z-score is on record?
**A.** active: -1.96

**Q.** Which median seed-adjusted z-score does the source give for GAAGCUUGAGGAACACGAATT against GOLGB1 here?
**A.** inactive: 0.0851

**Q.** Which median seed-adjusted z-score does the source give for GGAUGACAAUCAAGGAAAUTT against SERPINB7 here?
**A.** inactive: 0.584

**Q.** For GAAGUGACCUUCUCCUGGATT against PRRX2, which median seed-adjusted z-score is on record?
**A.** inactive: -0.141

**Q.** For CACUAAAUGUGACUCCUGATT against TTC5, which median seed-adjusted z-score is on record?
**A.** inactive: -0.296

**Q.** Which median seed-adjusted z-score does the source give for ACUUCAACAUGACCAAAAATT against PPARD here?
**A.** inactive: 0.0283

**Q.** Which median seed-adjusted z-score does the source give for CUGUAUACUUGACAAACGATT against NRK here?
**A.** inactive: 0.0687

**Q.** Which median seed-adjusted z-score does the source give for GCCUGUCAAUCAGAAUGCATT against SIX4 here?
**A.** inactive: 0.0462

**Q.** For GAUGAUAGCCAAACCCUCATT against ZNF626, which median seed-adjusted z-score is on record?
**A.** inactive: 0.185

**Q.** With CUCGAUGACUUGUACUUGATT against DCPS as the sequence, how does the median seed-adjusted z-score read?
**A.** inactive: 0.669

**Q.** With GACUCGUUUUGUACAGUAUTT against TLK2 as the sequence, how does the median seed-adjusted z-score read?
**A.** inactive: 0.347

**Q.** Which median seed-adjusted z-score does the source give for CAACUGGACAGACAACGCUTT against CD82 here?
**A.** inactive: 0.102

**Q.** With GCGAGUUUGUCACUGCUUUTT against PDIA4 as the sequence, how does the median seed-adjusted z-score read?
**A.** inactive: -0.499
